The list shows a part of the results.
The targets below were run with C1=CC=C(C=C1)[C@H](COC2=CC3=C(C=C2)NC(=O)N3)NC(=O)C4=CC=CN(C4=O)CC5=CC(=C(C=C5)F)F (assay: log2 fold change, soluble protein after heating vs DMSO (PISA); higher = thermal stabilisation; K562 lysate, 10 uM; active = over 0.2 and 3.5 SD of the protein, either way, in both replicates (recomputed)).
Method in brief: (§1)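 K562 pellets were dounce-homogenised in PBS pH 7.4 with 1 mM MgCl2, and the crude extract at 1 mg/mL protein was treated with 10 μM compound for 30 min. Aliquots were heated for 3 min across 48°C-58°C, pooled, and brought to 0.5% NP-40 at 4°C; soluble protein was the supernatant after 21,000xg for 90 min. Soluble protein was quantified by TMTpro 16plex LC-MS/MS with channel sums equalised, and reported as log2 fold change in thermal stability against DMSO controls, with values from duplicates.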

Sequences of proteins named here, by UniProt entry; tags and fusion partners are left off. A change or cut given only in a name is not applied to a line headed by its entry.
UniProt Q9NYM9: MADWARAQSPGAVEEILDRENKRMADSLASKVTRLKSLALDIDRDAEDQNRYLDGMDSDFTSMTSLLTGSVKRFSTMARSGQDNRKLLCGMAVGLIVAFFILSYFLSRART
UniProt Q8WY22: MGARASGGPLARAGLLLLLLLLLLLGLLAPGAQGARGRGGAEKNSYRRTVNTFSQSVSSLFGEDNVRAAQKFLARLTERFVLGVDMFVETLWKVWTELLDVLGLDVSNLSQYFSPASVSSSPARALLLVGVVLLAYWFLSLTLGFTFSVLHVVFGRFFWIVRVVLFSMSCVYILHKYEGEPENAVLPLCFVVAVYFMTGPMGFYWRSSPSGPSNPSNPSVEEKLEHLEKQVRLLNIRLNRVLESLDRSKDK
UniProt P10415, whole entry, looked up: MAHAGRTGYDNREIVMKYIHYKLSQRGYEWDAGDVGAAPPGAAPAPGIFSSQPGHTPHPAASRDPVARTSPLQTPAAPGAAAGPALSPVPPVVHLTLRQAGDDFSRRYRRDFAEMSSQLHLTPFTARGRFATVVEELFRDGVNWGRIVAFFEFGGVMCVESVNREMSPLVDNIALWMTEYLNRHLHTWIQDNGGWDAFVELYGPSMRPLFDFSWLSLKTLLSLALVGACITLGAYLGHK
UniProt Q13490, whole entry, looked up: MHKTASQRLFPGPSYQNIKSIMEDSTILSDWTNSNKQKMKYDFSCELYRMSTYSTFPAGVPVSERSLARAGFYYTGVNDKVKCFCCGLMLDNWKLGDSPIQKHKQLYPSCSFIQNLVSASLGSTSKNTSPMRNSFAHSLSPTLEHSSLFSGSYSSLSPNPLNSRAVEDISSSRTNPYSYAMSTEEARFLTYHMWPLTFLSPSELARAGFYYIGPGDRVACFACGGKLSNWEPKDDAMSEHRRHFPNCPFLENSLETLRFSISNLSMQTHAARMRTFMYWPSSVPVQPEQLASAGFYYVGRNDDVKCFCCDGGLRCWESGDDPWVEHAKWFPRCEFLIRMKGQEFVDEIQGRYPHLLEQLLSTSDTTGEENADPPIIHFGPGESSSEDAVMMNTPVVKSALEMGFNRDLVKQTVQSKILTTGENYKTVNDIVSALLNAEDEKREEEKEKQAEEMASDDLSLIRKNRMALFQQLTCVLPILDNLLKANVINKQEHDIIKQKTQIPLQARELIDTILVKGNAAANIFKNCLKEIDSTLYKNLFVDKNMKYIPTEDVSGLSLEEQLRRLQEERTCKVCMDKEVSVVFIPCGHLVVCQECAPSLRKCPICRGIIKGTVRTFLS
UniProt Q9UIG0: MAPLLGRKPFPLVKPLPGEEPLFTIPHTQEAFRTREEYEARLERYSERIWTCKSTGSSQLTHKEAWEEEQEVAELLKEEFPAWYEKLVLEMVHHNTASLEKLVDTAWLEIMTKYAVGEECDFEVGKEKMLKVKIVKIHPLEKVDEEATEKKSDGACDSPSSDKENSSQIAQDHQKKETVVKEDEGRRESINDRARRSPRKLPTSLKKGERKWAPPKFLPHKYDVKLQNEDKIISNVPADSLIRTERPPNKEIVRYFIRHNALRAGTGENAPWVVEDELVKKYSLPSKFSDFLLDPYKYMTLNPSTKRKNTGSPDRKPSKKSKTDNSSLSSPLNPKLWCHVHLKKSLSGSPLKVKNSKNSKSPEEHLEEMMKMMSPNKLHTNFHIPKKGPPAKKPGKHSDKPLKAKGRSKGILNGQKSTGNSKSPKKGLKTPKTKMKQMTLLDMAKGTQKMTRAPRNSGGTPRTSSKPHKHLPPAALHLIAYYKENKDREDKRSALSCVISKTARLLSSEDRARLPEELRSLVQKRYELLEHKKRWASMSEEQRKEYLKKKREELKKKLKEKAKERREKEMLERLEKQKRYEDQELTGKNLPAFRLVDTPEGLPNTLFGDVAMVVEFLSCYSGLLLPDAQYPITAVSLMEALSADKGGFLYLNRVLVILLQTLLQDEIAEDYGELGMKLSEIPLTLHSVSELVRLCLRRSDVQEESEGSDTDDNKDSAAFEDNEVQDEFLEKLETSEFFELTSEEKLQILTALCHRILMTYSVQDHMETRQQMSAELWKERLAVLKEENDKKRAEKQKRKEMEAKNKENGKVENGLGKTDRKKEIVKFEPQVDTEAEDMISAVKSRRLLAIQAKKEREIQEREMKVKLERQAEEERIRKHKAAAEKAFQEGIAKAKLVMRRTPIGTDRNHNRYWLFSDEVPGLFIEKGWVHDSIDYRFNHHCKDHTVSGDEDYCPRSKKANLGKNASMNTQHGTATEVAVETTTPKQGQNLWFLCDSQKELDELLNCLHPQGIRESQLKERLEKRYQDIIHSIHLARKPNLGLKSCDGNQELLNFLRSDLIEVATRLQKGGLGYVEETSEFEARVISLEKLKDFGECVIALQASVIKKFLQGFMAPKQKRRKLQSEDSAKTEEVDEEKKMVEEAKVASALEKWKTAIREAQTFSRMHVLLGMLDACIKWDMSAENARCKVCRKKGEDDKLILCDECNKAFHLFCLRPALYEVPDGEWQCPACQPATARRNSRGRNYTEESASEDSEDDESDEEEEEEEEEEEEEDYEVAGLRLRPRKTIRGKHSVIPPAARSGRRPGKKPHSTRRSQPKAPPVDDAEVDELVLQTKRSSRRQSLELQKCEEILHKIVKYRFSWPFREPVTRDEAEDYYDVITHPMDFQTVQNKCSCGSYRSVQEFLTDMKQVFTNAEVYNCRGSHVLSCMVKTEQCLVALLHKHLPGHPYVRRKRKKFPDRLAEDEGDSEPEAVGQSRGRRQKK
UniProt P53004: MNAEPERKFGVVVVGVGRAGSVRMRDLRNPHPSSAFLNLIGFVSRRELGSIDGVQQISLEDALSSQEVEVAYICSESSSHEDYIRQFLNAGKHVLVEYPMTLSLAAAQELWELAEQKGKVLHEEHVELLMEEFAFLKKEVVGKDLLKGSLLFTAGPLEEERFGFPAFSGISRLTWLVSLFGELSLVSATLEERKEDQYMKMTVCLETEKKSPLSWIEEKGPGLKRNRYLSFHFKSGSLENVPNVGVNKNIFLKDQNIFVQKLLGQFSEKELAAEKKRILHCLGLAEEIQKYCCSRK
UniProt Q6PJG6: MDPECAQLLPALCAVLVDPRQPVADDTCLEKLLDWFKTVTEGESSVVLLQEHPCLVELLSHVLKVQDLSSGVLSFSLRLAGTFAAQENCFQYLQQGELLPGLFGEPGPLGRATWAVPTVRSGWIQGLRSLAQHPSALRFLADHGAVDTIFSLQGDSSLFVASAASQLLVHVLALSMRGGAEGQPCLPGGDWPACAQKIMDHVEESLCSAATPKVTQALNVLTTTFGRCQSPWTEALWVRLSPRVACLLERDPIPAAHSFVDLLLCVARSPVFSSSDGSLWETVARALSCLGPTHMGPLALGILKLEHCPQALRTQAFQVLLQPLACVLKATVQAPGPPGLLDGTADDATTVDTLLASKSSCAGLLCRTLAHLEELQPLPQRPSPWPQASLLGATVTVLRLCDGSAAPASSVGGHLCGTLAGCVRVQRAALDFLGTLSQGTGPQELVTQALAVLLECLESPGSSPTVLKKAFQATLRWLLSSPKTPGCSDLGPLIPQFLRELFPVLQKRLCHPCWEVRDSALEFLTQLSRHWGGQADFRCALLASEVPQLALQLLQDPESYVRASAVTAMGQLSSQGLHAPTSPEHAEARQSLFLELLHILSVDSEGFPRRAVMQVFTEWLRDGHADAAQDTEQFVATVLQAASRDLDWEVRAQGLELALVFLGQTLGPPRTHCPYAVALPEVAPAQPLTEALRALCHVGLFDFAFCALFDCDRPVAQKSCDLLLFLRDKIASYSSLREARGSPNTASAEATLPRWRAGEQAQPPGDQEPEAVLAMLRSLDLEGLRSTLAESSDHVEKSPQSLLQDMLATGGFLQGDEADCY
UniProt Q8WUW1: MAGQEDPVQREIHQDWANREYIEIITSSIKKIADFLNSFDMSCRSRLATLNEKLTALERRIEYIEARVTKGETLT
UniProt Q13867: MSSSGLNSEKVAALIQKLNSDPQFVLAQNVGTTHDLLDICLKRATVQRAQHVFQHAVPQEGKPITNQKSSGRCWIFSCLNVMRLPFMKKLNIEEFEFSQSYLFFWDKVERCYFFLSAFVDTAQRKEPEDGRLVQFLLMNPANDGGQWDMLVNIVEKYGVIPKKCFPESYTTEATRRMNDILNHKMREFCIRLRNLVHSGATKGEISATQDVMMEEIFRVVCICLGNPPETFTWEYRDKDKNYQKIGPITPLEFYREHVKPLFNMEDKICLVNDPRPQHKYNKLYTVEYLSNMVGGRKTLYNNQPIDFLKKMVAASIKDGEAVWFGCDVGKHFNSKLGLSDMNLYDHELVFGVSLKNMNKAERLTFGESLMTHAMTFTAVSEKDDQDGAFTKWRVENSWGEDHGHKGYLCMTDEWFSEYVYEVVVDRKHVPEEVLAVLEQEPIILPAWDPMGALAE
UniProt Q6QNY1: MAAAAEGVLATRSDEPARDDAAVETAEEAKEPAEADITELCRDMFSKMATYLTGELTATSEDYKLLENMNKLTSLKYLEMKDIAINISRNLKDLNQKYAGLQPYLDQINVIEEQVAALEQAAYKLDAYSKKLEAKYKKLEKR
UniProt Q9P287, whole entry, looked up: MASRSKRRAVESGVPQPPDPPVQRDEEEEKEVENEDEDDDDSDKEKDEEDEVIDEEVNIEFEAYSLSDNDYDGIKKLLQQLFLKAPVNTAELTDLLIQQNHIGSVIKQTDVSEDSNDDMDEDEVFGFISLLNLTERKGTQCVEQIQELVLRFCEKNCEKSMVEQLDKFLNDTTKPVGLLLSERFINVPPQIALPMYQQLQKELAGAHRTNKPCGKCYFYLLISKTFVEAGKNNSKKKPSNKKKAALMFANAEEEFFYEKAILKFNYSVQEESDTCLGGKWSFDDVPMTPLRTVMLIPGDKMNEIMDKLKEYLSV
UniProt Q15059, whole entry, looked up: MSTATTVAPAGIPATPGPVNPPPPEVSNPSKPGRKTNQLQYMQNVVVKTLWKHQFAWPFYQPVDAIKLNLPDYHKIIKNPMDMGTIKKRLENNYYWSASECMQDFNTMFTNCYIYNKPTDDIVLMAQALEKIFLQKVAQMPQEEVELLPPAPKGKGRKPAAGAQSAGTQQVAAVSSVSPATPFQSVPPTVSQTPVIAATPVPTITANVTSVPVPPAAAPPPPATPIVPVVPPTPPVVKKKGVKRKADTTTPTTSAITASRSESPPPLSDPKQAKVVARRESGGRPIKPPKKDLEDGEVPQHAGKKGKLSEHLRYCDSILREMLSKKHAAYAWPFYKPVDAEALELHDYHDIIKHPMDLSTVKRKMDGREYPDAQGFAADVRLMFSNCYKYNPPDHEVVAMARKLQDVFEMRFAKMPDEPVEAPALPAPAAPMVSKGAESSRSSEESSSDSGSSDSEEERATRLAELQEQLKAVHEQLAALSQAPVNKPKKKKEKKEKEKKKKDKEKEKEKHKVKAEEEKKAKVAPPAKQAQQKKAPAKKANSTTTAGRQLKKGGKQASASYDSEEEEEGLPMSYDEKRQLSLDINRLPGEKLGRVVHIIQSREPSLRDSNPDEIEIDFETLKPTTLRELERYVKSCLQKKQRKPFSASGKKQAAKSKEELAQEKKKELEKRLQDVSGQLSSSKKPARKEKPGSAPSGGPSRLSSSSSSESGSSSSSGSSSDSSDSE
UniProt Q6QNY0: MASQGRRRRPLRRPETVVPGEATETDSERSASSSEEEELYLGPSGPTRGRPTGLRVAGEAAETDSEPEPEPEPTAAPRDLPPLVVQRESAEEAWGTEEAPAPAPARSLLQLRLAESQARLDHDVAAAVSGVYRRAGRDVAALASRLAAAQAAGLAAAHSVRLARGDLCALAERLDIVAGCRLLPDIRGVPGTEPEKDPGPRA
UniProt Q6PGQ7, whole entry, looked up: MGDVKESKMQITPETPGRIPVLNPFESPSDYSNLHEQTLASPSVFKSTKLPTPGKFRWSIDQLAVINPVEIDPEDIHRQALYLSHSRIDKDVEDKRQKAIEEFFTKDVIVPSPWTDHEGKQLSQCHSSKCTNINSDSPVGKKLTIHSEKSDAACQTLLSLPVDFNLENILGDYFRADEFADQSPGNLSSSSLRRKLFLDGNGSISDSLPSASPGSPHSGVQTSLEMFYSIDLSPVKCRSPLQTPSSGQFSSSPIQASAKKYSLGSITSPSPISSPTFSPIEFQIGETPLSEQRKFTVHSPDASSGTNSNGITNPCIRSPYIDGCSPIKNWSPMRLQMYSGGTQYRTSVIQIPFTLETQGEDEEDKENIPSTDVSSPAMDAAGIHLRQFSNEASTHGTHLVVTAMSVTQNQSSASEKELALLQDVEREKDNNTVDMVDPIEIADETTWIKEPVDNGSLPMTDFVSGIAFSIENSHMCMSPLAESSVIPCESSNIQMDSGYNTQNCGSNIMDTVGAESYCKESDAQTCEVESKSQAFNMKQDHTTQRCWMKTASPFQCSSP
UniProt Q9UHQ4: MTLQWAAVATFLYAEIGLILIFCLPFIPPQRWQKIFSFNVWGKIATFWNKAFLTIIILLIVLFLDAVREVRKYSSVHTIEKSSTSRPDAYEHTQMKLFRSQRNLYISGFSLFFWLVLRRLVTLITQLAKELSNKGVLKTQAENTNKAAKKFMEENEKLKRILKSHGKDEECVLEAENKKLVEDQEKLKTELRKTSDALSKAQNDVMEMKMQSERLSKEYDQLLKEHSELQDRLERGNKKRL

| Target | log2 fold change |
| --- | --- |
| BACH1 (UniProt O14867) | inactive: 0.029 |
| BET1L (UniProt Q9NYM9) | inactive: 0.061 |
| BRI3BP (UniProt Q8WY22) | inactive: 0.016 |
| BCL2 (UniProt P10415) | inactive: -0.02 |
| BIRC2 (UniProt Q13490) | inactive: -0.035 |
| BOLA2 (UniProt Q9H3K6) | inactive: -0.052 |
| BTD isoform 3 (UniProt P43251) | inactive: 0.141 |
| BICD1 (UniProt Q96G01) | inactive: 0.04 |
| BAZ1B (UniProt Q9UIG0) | inactive: 0.052 |
| BTF3 (UniProt P20290) | inactive: 0.009 |
| BOP1 (UniProt Q14137) | inactive: 0.014 |
| BLVRA (UniProt P53004) | inactive: -0.033 |
| BRAT1 (UniProt Q6PJG6) | inactive: -0.043 |
| BCL2L13 (UniProt Q9BXK5) | inactive: 0.093 |
| BANP (UniProt Q8N9N5) | inactive: 0.027 |
| BST2 (UniProt Q10589) | inactive: -0.022 |
| BTF3L4 (UniProt Q96K17) | inactive: 0.038 |
| BAZ1A (UniProt Q9NRL2) | inactive: 0.084 |
| BCL7B (UniProt Q9BQE9) | inactive: 0.166 |

| Target | log2 fold change |
| --- | --- |
| BAG3 (UniProt O95817) | inactive: 0.022 |
| BPNT1 (UniProt A6NF51) | inactive: -0.005 |
| BAG5 isoform 2 (UniProt Q9UL15) | inactive: 0.043 |
| BRIX1 (UniProt Q8TDN6) | inactive: 0.022 |
| BLOC1S1 (UniProt P78537) | inactive: 0.009 |
| BORCS6 (UniProt Q96GS4) | inactive: -0.112 |
| BRK1 isoform 2 (UniProt Q8WUW1) | inactive: 0 |
| BLMH (UniProt Q13867) | inactive: 0.017 |
| BLOC1S2 (UniProt Q6QNY1) | inactive: 0.147 |
| BOD1L1 (UniProt Q8NFC6) | inactive: 0.02 |
| BCCIP isoform 2 (UniProt Q9P287) | inactive: 0.005 |
| BSG (UniProt P35613) | inactive: -0.009 |
| BRD3 (UniProt Q15059) | inactive: 0.027 |
| BLOC1S3 (UniProt Q6QNY0) | inactive: 0.021 |
| BORA (UniProt Q6PGQ7) | inactive: -0.036 |
| BMS1 (UniProt Q14692) | inactive: 0.047 |
| BRD8 isoform 2 (UniProt Q9H0E9) | inactive: 0.019 |
| BCAP29 isoform 2 (UniProt Q9UHQ4) | inactive: 0.042 |
| BAP1 (UniProt Q92560) | inactive: 0.05 |

Each target was assayed with CC1=C(SC2=C1C(=N[C@H](C3=NN=C(N32)C)CC(=O)N)C4=CC=C(C=C4)Cl)C in the same assay as above.
Method in brief: as §1

| Target | log2 fold change |
| --- | --- |
| BACH1 (UniProt O14867) | inactive: 0.017 |
| BET1L (UniProt Q9NYM9) | inactive: -0.007 |
| BRI3BP (UniProt Q8WY22) | inactive: 0.121 |
| BCL2 (UniProt P10415) | inactive: 0.032 |
| BIRC2 (UniProt Q13490) | inactive: 0.021 |
| BOLA2 (UniProt Q9H3K6) | inactive: 0.01 |
| BTD isoform 3 (UniProt P43251) | inactive: 0.014 |
| BICD1 (UniProt Q96G01) | inactive: 0.006 |
| BAZ1B (UniProt Q9UIG0) | inactive: -0.098 |
| BTF3 (UniProt P20290) | inactive: -0.006 |
| BOP1 (UniProt Q14137) | inactive: 0.017 |
| BLVRA (UniProt P53004) | inactive: 0.034 |
| BRAT1 (UniProt Q6PJG6) | inactive: -0.005 |
| BCL2L13 (UniProt Q9BXK5) | inactive: -0.006 |
| BANP (UniProt Q8N9N5) | inactive: 0.026 |
| BST2 (UniProt Q10589) | inactive: -0.003 |
| BTF3L4 (UniProt Q96K17) | inactive: -0.07 |
| BAZ1A (UniProt Q9NRL2) | inactive: 0.007 |
| BCL7B (UniProt Q9BQE9) | inactive: 0.279 |

| Target | log2 fold change |
| --- | --- |
| BAG3 (UniProt O95817) | inactive: 0.023 |
| BPNT1 (UniProt A6NF51) | inactive: -0.019 |
| BAG5 isoform 2 (UniProt Q9UL15) | inactive: 0.027 |
| BRIX1 (UniProt Q8TDN6) | inactive: -0.023 |
| BLOC1S1 (UniProt P78537) | inactive: 0 |
| BORCS6 (UniProt Q96GS4) | inactive: 0.08 |
| BRK1 isoform 2 (UniProt Q8WUW1) | inactive: -0.043 |
| BLMH (UniProt Q13867) | inactive: 0.007 |
| BLOC1S2 (UniProt Q6QNY1) | inactive: 0.071 |
| BOD1L1 (UniProt Q8NFC6) | inactive: -0.022 |
| BCCIP isoform 2 (UniProt Q9P287) | inactive: 0.012 |
| BSG (UniProt P35613) | inactive: 0.017 |
| BRD3 (UniProt Q15059) | active: 0.631 |
| BLOC1S3 (UniProt Q6QNY0) | inactive: -0.004 |
| BORA (UniProt Q6PGQ7) | inactive: 0.014 |
| BMS1 (UniProt Q14692) | inactive: -0.036 |
| BRD8 isoform 2 (UniProt Q9H0E9) | inactive: 0.005 |
| BCAP29 isoform 2 (UniProt Q9UHQ4) | inactive: -0.066 |
| BAP1 (UniProt Q92560) | inactive: 0.074 |
